Experimental data reported in publication PMC6997074.
These are yes or no findings as the source states them, for the method shown. Binding seen in cells or lysates may run through a third protein. Some results given as binding are weak or reduced against the parent protein; the word gives no strength.

Protein sequences, listed by entry. Tags and fused reporters are not part of them.
UniProt P48431: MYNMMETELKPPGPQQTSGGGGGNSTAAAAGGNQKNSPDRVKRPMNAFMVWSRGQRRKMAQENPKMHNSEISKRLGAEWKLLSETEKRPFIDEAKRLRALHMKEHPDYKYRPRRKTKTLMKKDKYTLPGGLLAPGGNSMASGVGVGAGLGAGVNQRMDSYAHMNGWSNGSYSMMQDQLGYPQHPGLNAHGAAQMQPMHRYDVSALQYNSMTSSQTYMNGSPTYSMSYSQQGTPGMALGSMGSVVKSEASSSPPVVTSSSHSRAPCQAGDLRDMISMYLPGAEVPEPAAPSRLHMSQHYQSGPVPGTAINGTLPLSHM

Assays:
[1] = biological target: Epidermal growth factor receptor (human (endogenous in CAL-27)) (UniProt P00533); test: co-IP; anti-EGFR coprecipitates from CAL-27 lysate (RIPA buffer, Protein A/G Plus-Agarose, overnight at 4°C) blotted with an anti-SOX2 antibody
[2] = biological target: p62 (human (endogenous in CAL-27 and SCC-15)) (UniProt Q13501); test: co-IP; lysates of CAL-27 and SCC-15 cells with or without 1 h of EGF (100 ng/mL) immunoprecipitated with an anti-p62 antibody and blotted with the indicated antibody
DDK-tagged SQSTM1 = DDK-tagged SQSTM1 (UniProt Q13501); test: co-IP; lysates of HEK293T cells transfected with DDK-SQSTM1 and Myc-SOX2 plasmids precipitated with an anti-DDK antibody and blotted with an anti-Myc antibody

binding [1]	binding [2]	binding (DDK-tagged SQSTM1)	Substance
binds	binds		SOX2 (from UniProt P48431 1-317)
		binds	Myc-tagged wild-type SOX2 (from UniProt P48431 1-317)
